Results from patent publication US20100119506A1, “Effectors of PAR-2 Activation and Their Use in the Modulation of Inflammation” (BOEHRINGER INGELHEIM INTERNATIONAL GMBH, priority 2008, published 2010).
Results are given in words; binding and its absence hold for the method and conditions named. Some binding calls cover weakened binding; strength is not graded here.

Target: T1, Murine PAR-2 peptide (murine)
T1 sequence (peptide): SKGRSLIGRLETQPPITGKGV
Assay: Kinexa, peptide in solution

- binding: binds
B1: Antibody Par-C (antibody, V domains shown)
VH: QVELVESGGGLVQPGGSLRLSCAASGFTFSSYAMNWVRQAPGKGLEWVSAISFSGHLTGYADSVKGRFTISRDNSKNTLYLQMNSLRAEDTAVYYCARIQNDPMDVWGQGTLVTVSS
VL: DIELTQPPSVSVAPGQTARISCSGDNLGKKYVQWYQQKPGQAPVLVIYDDSNRPSGIPERFSGSNSGNTATLTISGTQAEDEADYYCQTWDYSSIRDETNVFGGGTKLTVLG
